These are yes or no findings as the source states them, for the method shown. Binding seen in cells or lysates may run through a third protein. These calls come from enrichment with a bait or labelling near it, and not all partners need be listed. One block for each molecule: values may come before it.
Biological target: FLAG-Rab40c (stably expressed in MDA-MB-231 cells) (human) (UniProt Q96S21)
Test: affinity purification with mass spectrometry

Sequences of proteins named here, by UniProt entry; tags and fusion partners are left off.
UniProt Q96S21: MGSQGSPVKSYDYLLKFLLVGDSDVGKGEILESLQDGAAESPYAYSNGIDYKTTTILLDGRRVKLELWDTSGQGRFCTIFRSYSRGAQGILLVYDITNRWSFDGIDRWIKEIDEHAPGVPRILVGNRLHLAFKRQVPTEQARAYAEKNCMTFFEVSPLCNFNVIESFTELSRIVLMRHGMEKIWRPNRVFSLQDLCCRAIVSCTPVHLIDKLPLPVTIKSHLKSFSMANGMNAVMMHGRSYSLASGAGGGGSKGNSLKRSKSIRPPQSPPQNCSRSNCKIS
UniProt P62140: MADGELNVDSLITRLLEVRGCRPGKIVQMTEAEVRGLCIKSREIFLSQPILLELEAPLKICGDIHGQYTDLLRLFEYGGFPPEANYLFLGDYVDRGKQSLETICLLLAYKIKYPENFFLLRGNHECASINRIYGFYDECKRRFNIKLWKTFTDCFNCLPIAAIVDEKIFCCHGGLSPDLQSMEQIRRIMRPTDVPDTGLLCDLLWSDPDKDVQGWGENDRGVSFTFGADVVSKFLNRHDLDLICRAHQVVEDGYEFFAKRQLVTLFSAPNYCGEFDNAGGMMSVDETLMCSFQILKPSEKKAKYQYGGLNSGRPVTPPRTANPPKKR
UniProt P67775: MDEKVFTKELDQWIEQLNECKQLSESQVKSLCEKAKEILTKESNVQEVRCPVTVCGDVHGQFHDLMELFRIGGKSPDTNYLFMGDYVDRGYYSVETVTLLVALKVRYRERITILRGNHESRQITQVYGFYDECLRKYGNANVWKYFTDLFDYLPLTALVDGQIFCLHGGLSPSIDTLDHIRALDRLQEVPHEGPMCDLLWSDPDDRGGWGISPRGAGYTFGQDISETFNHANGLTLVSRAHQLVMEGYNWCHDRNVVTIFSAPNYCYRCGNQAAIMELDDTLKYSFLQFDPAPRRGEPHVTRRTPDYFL

binding: binds
Molecule: PP1CB (endogenous, MDA-MB-231) (from UniProt P62140 1-327) (enzyme)

binding: binds
Molecule: PP2CA (endogenous, MDA-MB-231) (from UniProt P67775 1-309) (enzyme)

binding: binds
B1: PPM1G (endogenous, MDA-MB-231) (enzyme, UniProt O15355 1-546)
chain: MGAYLSQPNTVKCSGDGVGAPRLPLPYGFSAMQGWRVSMEDAHNCIPELDSETAMFSVYDGHGGEEVALYCAKYLPDIIKDQKAYKEGKLQKALEDAFLAIDAKLTTEEVIKELAQIAGRPTEDEDEKEKVADEDDVDNEEAALLHEEATMTIEELLTRYGQNCHKGPPHSKSGGGTGEEPGSQGLNGEAGPEDSTRETPSQENGPTAKAYTGFSSNSERGTEAGQVGEPGIPTGEAGPSCSSASDKLPRVAKSKFFEDSEDESDEAEEEEEDSEECSEEEDGYSSEEAENEEDEDDTEEAEEDDEEEEEEMMVPGMEGKEEPGSDSGTTAVVALIRGKQLIVANAGDSRCVVSEAGKALDMSYDHKPEDEVELARIKNAGGKVTMDGRVNGGLNLSRAIGDHFYKRNKNLPPEEQMISALPDIKVLTLTDDHEFMVIACDGIWNVMSSQEVVDFIQSKISQRDENGELRLLSSIVEELLDQCLAPDTSGDGTGCDNMTCIIICFKPRNTAELQPESGKRKLEEVLSTEGAEENGNSDKKKKAKRD

binding: binds
B2: PP6R1 (endogenous, MDA-MB-231) (protein, UniProt Q9UPN7 1-881)
chain: MFWKFDLHTSSHLDTLLEREDLSLPELLDEEDVLQECKVVNRKLLDFLLQPPHLQAMVAWVTQEPPDSGEERLRYKYPSVACEILTSDVPQINDALGADESLLNRLYGFLQSTGSLNPLLASFFSKVMGILINRKTDQLVSFLRKKDDFVDLLLQHIGTSAIMDLLLRLLTCVERPQLRQDVVNWLNEEKIVQRLIEQIHPSKDENQHSNASQSLCDIIRLSREQMIQVQDSPEPDQLLATLEKQETIEQLLSNMFEGEQSQSVIVSGIQVLLTLLEPRRPRSESVTVNSFFSSVDGQLELLAQGALESTVSSVGALHALRPRLSCFHQLLLEPPKLEPLQMTWGMLAPPLGNTRLHVVKLLASALSANDAALTHELLALDVPNTMLDLFFHYVFNNFLHAQVEGCVSTMLSLGPPPDSSPETPIQNPVVKHLLQQCRLVERILTSWEENDRVQCAGGPRKGYMGHLTRVAGALVQNTEKGPNAEQLRQLLKELPSEQQEQWEAFVSGPLAETNKKNMVDLVNTHHLHSSSDDEDDRLKEFNFPEEAVLQQAFMDFQMQRMTSAFIDHFGFNDEEFGEQEESVNAPFDKTANITFSLNADDENPNANLLEICYKDRIQQFDDDEEEEDEEEAQGSGESDGEDGAWQGSQLARGARLGQPPGVRSGGSTDSEDEEEEDEEEEEDEEGIGCAARGGATPLSYPSPGPQPPGPSWTATFDPVPTDAPTSPRVSGEEELHTGPPAPQGPLSVPQGLPTQSLASPPARDALQLRSQDPTPPSAPQEATEGSKVTEPSAPCQALVSIGDLQATFHGIRSAPSSSDSATRDPSTSVPASGAHQPPQTTEGEKSPEPLGLPQSQSAQALTPPPIPNGSAPEGPASPGSQ

binding: binds
B3: Ankyrin repeat domain 28 (endogenous, MDA-MB-231) (protein, UniProt O15084 1-1053)
chain: MAFLKLRDQPSLVQAIFNGDPDEVRALIFKKEDVNFQDNEKRTPLHAAAYLGDAEIIELLILSGARVNAKDSKWLTPLHRAVASCSEEAVQVLLKHSADVNARDKNWQTPLHIAAANKAVKCAEALVPLLSNVNVSDRAGRTALHHAAFSGHGEMVKLLLSRGANINAFDKKDRRAIHWAAYMGHIEVVKLLVSHGAEVTCKDKKSYTPLHAAASSGMISVVKYLLDLGVDMNEPNAYGNTPLHVACYNGQDVVVNELIDCGAIVNQKNEKGFTPLHFAAASTHGALCLELLVGNGADVNMKSKDGKTPLHMTALHGRFSRSQTIIQSGAVIDCEDKNGNTPLHIAARYGHELLINTLITSGADTAKRGIHGMFPLHLAALSGFSDCCRKLLSSGFDIDTPDDFGRTCLHAAAAGGNLECLNLLLNTGADFNKKDKFGRSPLHYAAANCNYQCLFALVGSGASVNDLDERGCTPLHYAATSDTDGKCLEYLLRNDANPGIRDKQGYNAVHYSAAYGHRLCLQLIASETPLDVLMETSGTDMLSDSDNRATISPLHLAAYHGHHQALEVLVQSLLDLDVRNSSGRTPLDLAAFKGHVECVDVLINQGASILVKDYILKRTPIHAAATNGHSECLRLLIGNAEPQNAVDIQDGNGQTPLMLSVLNGHTDCVYSLLNKGANVDAKDKWGRTALHRGAVTGHEECVDALLQHGAKCLLRDSRGRTPIHLSAACGHIGVLGALLQSAASMDANPATADNHGYTALHWACYNGHETCVELLLEQEVFQKTEGNAFSPLHCAVINDNEGAAEMLIDTLGASIVNATDSKGRTPLHAAAFTDHVECLQLLLSHNAQVNSVDSTGKTPLMMAAENGQTNTVEMLVSSASAELTLQDNSKNTALHLACSKGHETSALLILEKITDRNLINATNAALQTPLHVAARNGLTMVVQELLGKGASVLAVDENGYTPALACAPNKDVADCLALILATMMPVSSSSPLSSLTFNAINRYTNTSKTVSFEALPIMRNEPSSYCSFNNIGGEQEYLYTDVDELNDSDSETY

binding: binds
B4: ANKRD52 (endogenous, MDA-MB-231) (protein, UniProt Q8NB46 1-1076)
chain: MGILSITDQPPLVQAIFSRDVEEVRSLLSQKENINVLDQERRTPLHAAAYVGDVPILQLLLMSGANVNAKDTLWLTPLHRAAASRNEKVLGLLLAHSADVNARDKLWQTPLHVAAANRATKCAEALAPLLSSLNVADRSGRSALHHAVHSGHLETVNLLLNKGASLNVCDKKERQPLHWAAFLGHLEVLKLLVARGADLGCKDRKGYGLLHTAAASGQIEVVKYLLRMGAEIDEPNAFGNTALHIACYLGQDAVAIELVNAGANVNQPNDKGFTPLHVAAVSTNGALCLELLVNNGADVNYQSKEGKSPLHMAAIHGRFTRSQILIQNGSEIDCADKFGNTPLHVAARYGHELLISTLMTNGADTARRGIHDMFPLHLAVLFGFSDCCRKLLSSGQLYSIVSSLSNEHVLSAGFDINTPDNLGRTCLHAAASGGNVECLNLLLSSGADLRRRDKFGRTPLHYAAANGSYQCAVTLVTAGAGVNEADCKGCSPLHYAAASDTYRRAEPHTPSSHDAEEDEPLKESRRKEAFFCLEFLLDNGADPSLRDRQGYTAVHYAAAYGNRQNLELLLEMSFNCLEDVESTIPVSPLHLAAYNGHCEALKTLAETLVNLDVRDHKGRTALFLATERGSTECVEVLTAHGASALIKERKRKWTPLHAAAASGHTDSLHLLIDSGERADITDVMDAYGQTPLMLAIMNGHVDCVHLLLEKGSTADAADLRGRTALHRGAVTGCEDCLAALLDHDAFVLCRDFKGRTPIHLASACGHTAVLRTLLQAALSTDPLDAGVDYSGYSPMHWASYTGHEDCLELLLEHSPFSYLEGNPFTPLHCAVINNQDSTTEMLLGALGAKIVNSRDAKGRTPLHAAAFADNVSGLRMLLQHQAEVNATDHTGRTALMTAAENGQTAAVEFLLYRGKADLTVLDENKNTALHLACSKGHEKCALMILAETQDLGLINATNSALQMPLHIAARNGLASVVQALLSHGATVLAVDEEGHTPALACAPNKDVADCLALILSTMKPFPPKDAVSPFSFSLLKNCSIAAAKTVGGCGALPHGASCPYSQERPGAIGLDGCYSE

binding: binds
B5: catalytic PP6 subunit (endogenous, MDA-MB-231) (enzyme, UniProt O00743 1-305)
chain: MAPLDLDKYVEIARLCKYLPENDLKRLCDYVCDLLLEESNVQPVSTPVTVCGDIHGQFYDLCELFRTGGQVPDTNYIFMGDFVDRGYYSLETFTYLLALKAKWPDRITLLRGNHESRQITQVYGFYDECQTKYGNANAWRYCTKVFDMLTVAALIDEQILCVHGGLSPDIKTLDQIRTIERNQEIPHKGAFCDLVWSDPEDVDTWAISPRGAGWLFGAKVTNEFVHINNLKLICRAHQLVHEGYKFMFDEKLVTVWSAPNYCYRCGNIASIMVFKDVNTREPKLFRAVPDSERVIPPRTTTPYFL

From doi:10.1101/2021.12.06.471409
